Consider 14 sequences from article PMC12774657.

Weaker means in comparison with the reference protein, sequence or condition of that experiment. For some assays here: Construct, isoform or probe ends are uncertain for at least one entry. For some assays here: At least one verdict was read from the data and is not stated in words by the source.

Common to all, as to assay: EMSA
A general note: Mobility shift assays separate free from complexed probe on a gel.

For series [1], the system named is HIF2a bHLH-PASA-PASB + ARNT bHLH-PASA-PASB. Particulars: EMSA: 10 nM probe, 20 mM Tris pH 8.0, 250 mM NaCl, 16 ug/ml salmon sperm ssDNA, 30 ug/ml BSA, 1.25 mM MgCl2, 6% glycerol, 10 mM DTT, room temperature 30 min, recombinant protein, protein details: 6xHis-TEV, tag removed,untagged, label: FAM.
Series [2] deals with SIM1 bHLH-PASA-PASB + ARNT2 bHLH-PASA-PASB. Particulars: EMSA: 10 nM probe, 20 mM Tris pH 8.0, 250 mM NaCl, 16 ug/ml salmon sperm ssDNA, 30 ug/ml BSA, 1.25 mM MgCl2, 6% glycerol, 10 mM DTT, room temperature 30 min, recombinant protein, protein details: 6xHis-TEV, tag removed,untagged.
Series [3] deals with HIF1a bHLH-PASA-PASB + ARNT bHLH-PASA-PASB. Particulars: EMSA: 10 nM probe, 20 mM Tris pH 8.0, 250 mM NaCl, 16 ug/ml salmon sperm ssDNA, 30 ug/ml BSA, 1.25 mM MgCl2, 6% glycerol, 10 mM DTT, room temperature 30 min, recombinant protein, protein details: 6xHis-TEV, tag removed,untagged, label: FAM.
In series [4] the test system is NPAS4 (1-329) + ARNT2 (1-481). Particulars: EMSA: 10 nM probe, 20 mM Tris pH 8.0, 250 mM NaCl, 16 ug/ml salmon sperm ssDNA, 30 ug/ml BSA, 1.25 mM MgCl2, 6% glycerol, 10 mM DTT, room temperature 30 min, recombinant protein, protein details: 6xHis-TEV, tag removed,untagged.
In series [5] the test system is SIM1.R171H (1-348) + ARNT2 (69-438). Particulars: weaker than on 79mer, same as WT; EMSA: 10 nM probe, 20 mM Tris pH 8.0, 250 mM NaCl, 16 ug/ml salmon sperm ssDNA, 30 ug/ml BSA, 1.25 mM MgCl2, 6% glycerol, 10 mM DTT, room temperature 30 min; recombinant protein; protein details: 6xHis-TEV, tag removed by TEV,untagged; label: FAM (upper strand).
The subject of series [6] is SIM1 (1-348) + ARNT2 (69-438). Particulars: weaker than on 79mer; EMSA: 10 nM probe, 20 mM Tris pH 8.0, 250 mM NaCl, 16 ug/ml salmon sperm ssDNA, 30 ug/ml BSA, 1.25 mM MgCl2, 6% glycerol, 10 mM DTT, room temperature 30 min; recombinant protein; protein details: 6xHis-TEV, tag removed by TEV,untagged; label: FAM (upper strand).
[7] abbreviates: partial block, methylcytosine, top strand (positions in figure only).
The mark [8] stands for this setting: methylcytosine, both strands (positions in figure only), label: FAM.
The mark [9] stands for this setting: methylcytosine, both strands (positions in figure only).
Setting [10] is: partial block, methylcytosine, bottom strand (positions in figure only).
[11] abbreviates: partial block, methylcytosine, bottom strand (positions in figure only), label: FAM.

With “AGGCTGCGTACGTGCGGGTCGT (double strand) [HRE C/C]”, the binding result in series [1], in series [2] (label: FAM) and in series [3] was “binds” throughout.

Consider “AATGGGTACGTGCCAAATTGAA (double strand) [HIF2a/ARNT top 22mer]”, for which the binding result in series [2] (label: FAM (upper strand)) is recorded as “binds more weakly”.

For “AGGCTGCGTACGTGCGGGTCGT (double strand) [HRE mC/C]”, the binding result is on record as “binds more weakly” in series [1] (setting [7]); “binds more weakly” in series [2] (partial block, methylcytosine, top strand (positions in figure only), label: FAM); “binds more weakly” in series [3] (setting [7]).

Take “AAATGAGTCGTGGCCAAAAATT (double strand) [NRE_G]”: the binding result in series [4] (label: FAM (upper strand)) is recorded as “binds more weakly”.

Regarding “AAATGAGTCGTGACCAAAAATT (double strand) [NRE (top NPAS4/ARNT2 22mer)]”, the binding result in series [4] (reference probe, label: FAM (upper strand)) is listed as “binds”.

As for “TGATTCTGGTAATTCGTGCACTAGAGTGTC (double strand) [BDNF exIV mC/mC]”, the binding result in series [4] (setting [8]) is “binds more weakly”.

In the case of “AAACCCGTCGTGACCAAAAATT (double strand) [CCC_NRE]”, the binding result in series [4] (label: FAM (upper strand)) is given as “binds more weakly”.

As for “AGGCTGCGTACGTGCGGGTCGT (double strand) [HRE mC/mC]”, the binding result in series [1] (setting [9]), in series [2] (setting [8]) and in series [3] (setting [9]) was “binds more weakly” throughout.

Regarding “AAATGAGTCGTGACCCCCAATT (double strand) [NRE_CCC]”, in series [4] (label: FAM (upper strand)), the binding result was “binds more weakly”.

As for “TGATTCTGGTAATTCGTGCACTAGAGTGTC (double strand) [BDNF exIV NPAS4 response element C/C]”, the binding result in series [4] (label: FAM) was “binds”.

On to “TGATTCTGGTAATTCGTGCACTAGAGTGTC (double strand) [BDNF exIV mC/C]”, for which the binding result in series [4] (partial block, methylcytosine, top strand (positions shown in red in figure only), label: FAM) is on record as “binds more weakly”.

“AAAAGGTACGTGACCAAAAAGA (double strand) [SRE 22mer (top SIM1/ARNT2 probe)]”: the binding result in series [5] and in series [6] was “binds more weakly” throughout.

On to “AGGCTGCGTACGTGCGGGTCGT (double strand) [HRE C/mC]”, for which the binding result in series [1] (setting [10]), in series [2] (setting [11]) and in series [3] (setting [10]) was “binds more weakly” throughout.

On to “TGATTCTGGTAATTCGTGCACTAGAGTGTC (double strand) [BDNF exIV C/mC]”, for which, in series [4] (setting [11]), the binding result is on record as “binds more weakly”.
